Some results were stated once for a whole list of compounds, not compound by compound. For at least one compound, name, drawing or mass did not settle the structure.
Test system: HT-29 cells
Assay: Cytotoxicity / antiproliferative activity against HT-29 cells
Type: cell-based
Excerpt: The cytotoxicity of the compounds in FIG. 1 was screened against HT-29 cells by a previously reported procedure (Ren Y et al. J. Nat. Prod 2011, 74, 1117-1125). A summary of the results is described in Table 1.

Structure (SMILES)	IC50
COc1cc2c(OC3OCC4OC(C)(C)OC4C3OC)c3c(c(-c4ccc5c(c4)OCO5)c2cc1OC)C(=O)OC3 (centres unmarked) [PHY-31]	< 0.02 µM
COc1cc2c(OC3OC(CO)C(OC)C(OC)C3OC)c3c(c(-c4ccc5c(c4)OCO5)c2cc1OC)C(=O)OC3 (centres unmarked) [PHY-25]	< 0.02 µM

Reference: patent US10682367B2, “Antitumor arylnaphthalene ligand glycosides” (OHIO STATE INNOVATION FOUNDATION, priority 2016, dated 2020)
